Measured values reported in PMC8129428.
No constants are given. Whether binding was seen depends on the method and setting. In cells and extracts the contact can be indirect. Some binding calls cover weakened binding; strength is not graded here.

The chains behind the UniProt entries cited, without tags or fusion partners.
UniProt Q96LA8: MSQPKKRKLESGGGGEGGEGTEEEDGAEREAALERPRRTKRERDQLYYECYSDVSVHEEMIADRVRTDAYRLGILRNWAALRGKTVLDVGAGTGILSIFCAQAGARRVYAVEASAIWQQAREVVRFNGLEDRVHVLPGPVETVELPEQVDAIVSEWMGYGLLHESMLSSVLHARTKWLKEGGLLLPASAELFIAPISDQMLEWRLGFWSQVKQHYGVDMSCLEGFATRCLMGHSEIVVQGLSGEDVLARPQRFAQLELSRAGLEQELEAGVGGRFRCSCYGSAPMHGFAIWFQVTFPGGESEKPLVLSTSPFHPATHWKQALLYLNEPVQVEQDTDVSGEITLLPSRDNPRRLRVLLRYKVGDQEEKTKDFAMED
UniProt Q01196: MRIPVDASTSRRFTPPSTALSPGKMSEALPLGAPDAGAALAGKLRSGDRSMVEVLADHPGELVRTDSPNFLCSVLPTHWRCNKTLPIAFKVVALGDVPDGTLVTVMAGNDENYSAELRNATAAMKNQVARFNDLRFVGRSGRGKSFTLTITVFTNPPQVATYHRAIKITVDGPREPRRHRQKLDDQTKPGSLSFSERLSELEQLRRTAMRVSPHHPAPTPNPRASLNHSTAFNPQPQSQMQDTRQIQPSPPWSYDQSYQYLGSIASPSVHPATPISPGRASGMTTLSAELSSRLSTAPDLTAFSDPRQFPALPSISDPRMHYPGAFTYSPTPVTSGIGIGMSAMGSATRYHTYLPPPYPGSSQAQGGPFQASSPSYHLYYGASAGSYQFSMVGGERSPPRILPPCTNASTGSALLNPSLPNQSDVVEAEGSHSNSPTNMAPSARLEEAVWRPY
UniProt Q99873: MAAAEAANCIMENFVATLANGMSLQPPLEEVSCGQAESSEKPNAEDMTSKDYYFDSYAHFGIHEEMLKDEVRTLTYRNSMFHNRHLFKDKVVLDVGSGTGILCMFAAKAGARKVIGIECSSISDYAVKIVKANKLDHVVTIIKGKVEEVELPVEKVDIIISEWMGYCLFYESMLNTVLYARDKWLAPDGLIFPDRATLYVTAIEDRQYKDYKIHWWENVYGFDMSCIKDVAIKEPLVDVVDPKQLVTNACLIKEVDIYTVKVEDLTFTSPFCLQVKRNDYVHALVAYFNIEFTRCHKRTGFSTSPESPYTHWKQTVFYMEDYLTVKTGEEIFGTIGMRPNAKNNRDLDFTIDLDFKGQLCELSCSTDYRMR

Legend:
GST-PRMT6 [1] = molecular target: GST-PRMT6 (UniProt Q96LA8); experiment: pull-down; GST-PRMT6 on glutathione beads incubated with 500 ug lysate of HEK293T cells over expressing LEF1; Western blot with anti-LEF1; only the target purified
[2] = molecular target: Biotinylated RUNX1 (bait) in HEK293 cells (UniProt Q01196); experiment: pull-down; co-streptavidin-precipitation (CoSP): biotin tagged bait co-transfected with the prey into HEK293 cells, pulled out of lysate (50 mM Tris pH 7.4, 50 mM NaCl, 1% Triton X-100) with streptavidin beads; Western blot
[3] = molecular target: avi-PRMT6, biotin tagged, in HEK293 cells (UniProt Q96LA8); experiment: as above
GST-PRMT6 [4] = molecular target: GST-PRMT6 (UniProt Q96LA8); experiment: pull-down; GST-PRMT6 on glutathione beads incubated with 10 uL in vitro translated LEF1 in 250 uL lysis buffer (50 mM Tris pH 7.4, 100 mM NaCl, 10% glycerol, 0.1% Triton X-100, 1 mM DTT, 1 mM EDTA), 3 h, 4 °C; Western blot with anti-LEF1; only the target purified

Row | binding (GST-PRMT6 [1]) | binding [2] | binding [3] | binding (GST-PRMT6 [4]) | Substance
1 | binds | binds | binds | – | LEF1 expressed in HEK293 cells (from UniProt Q9UJU2-1 1-399)
2 | – | – | – | binds | LEF1, in vitro translated (from UniProt Q9UJU2-1 1-399)
3 | – | – | binds | – | PRMT1 expressed in HEK293 cells, detected with an anti-HA antibody (from UniProt Q99873 1-371) (enzyme)
4 | – | – | binds | – | RUNX1 expressed in HEK293 cells (prey) (from UniProt Q01196 1-453)
